Source: patent publication US20260079169A1, “VOLATILE ORGANIC COMPOUNDS AS MARKERS FOR CELLULAR COMMUNICATION” (Technion Research and Development Foundation Limited, priority 2020, published 2026)

Key:
[1] = system: A549, H1299, H1975 human lung cancer lines and BEAS-2B normal cell line, each cultured alone; test: VOCs headspace analysis (ITEX GC-MS) of mono-culture groups (Format-1), bulk cell samples 1×10^4 cells; assay type: cell-based; conditions: bulk 1 × 10^4 cell
[2] = system: different-cell pairs of BEAS-2B, A549, H1299, H1975 without physical contact under a mutual headspace; test: VOCs headspace analysis (ITEX GC-MS) of different-cell pair co-culture headspace groups (Format-3), bulk cell samples; assay type: cell-based, human; conditions: bulk 1 × 10^4 cell

Compound | VOC level in headspace, area under curve (AUC) normalized by STD AUC ([1]; A (BEAS-2B) mono-culture) | VOC level in headspace, area under curve (AUC) normalized by STD AUC ([1]; B (A549) mono-culture) | VOC level in headspace, area under curve (AUC) normalized by STD AUC ([1]; C (H1299) mono-culture) | VOC level in headspace, area under curve (AUC) normalized by STD AUC ([1]; D (H1975) mono-culture) | VOC level in headspace, area under curve (AUC) normalized by STD AUC ([2]; A + B (BEAS-2B + A549)) | VOC level in headspace, area under curve (AUC) normalized by STD AUC ([2]; A + C (BEAS-2B + H1299)) | VOC level in headspace, area under curve (AUC) normalized by STD AUC ([2]; A + D (BEAS-2B + H1975)) | VOC level in headspace, area under curve (AUC) normalized by STD AUC ([2]; B + C (A549 + H1299)) | VOC level in headspace, area under curve (AUC) normalized by STD AUC ([2]; B + D (A549 + H1975)) | VOC level in headspace, area under curve (AUC) normalized by STD AUC ([2]; C + D (H1299 + H1975))
CCOCC [VOC85] | 0 | 4.149 | 0 | 5.735 | 3.629 | 0 | 0 | 2.303 | 7.176 | 5.431
CC(=O)CCC=C(C)C [VOC86] | 0 | 0 | 0 | 4.637 | 0 | 0 | 5.903 | 0 | 8.078 | 2.219
C=C(C)CCO [VOC87] | 0 | 0 | 4.7815 | 4.854 | 0 | 6.943 | 6.777 | 4.197 | 4.222 | 2.7
CCCCC(O)CCC (centres unmarked) [VOC88] | 0 | 3.18 | 0 | 0 | 3.088 | 0 | 0 | 1.643 | 1.099 | 0
CC(=O)c1ccc(C(C)=O)cc1 [VOC89] | 0 | 0 | 0 | 9.8462 | 0 | 0 | 4.323 | 0 | 7.354 | 0
Cc1cc(C)nc(C)c1 [VOC90] | 0 | 0 | 2.6707 | 5.566 | 0 | 0.2737 | 5.643 | 2.014 | 3.995 | 1.619
CCCCCC(O)CC (centres unmarked) [VOC91] | 0 | 0 | 0 | 7.744 | 0 | 0 | 5.868 | 0 | 7.186 | 2.36
CCCC(C)=O [VOC92] | 0 | 0 | 5.421 | 0 | 0 | 4.886 | 0 | 1.289 | 0 | 2.295
